# Assay results from PMC6836476.
# By UniProt entry, the sequences of proteins in these tests, tags left out. Where a name states a change or a piece, a line headed by the entry shows the natural chain unless it says otherwise.
# UniProt O88942: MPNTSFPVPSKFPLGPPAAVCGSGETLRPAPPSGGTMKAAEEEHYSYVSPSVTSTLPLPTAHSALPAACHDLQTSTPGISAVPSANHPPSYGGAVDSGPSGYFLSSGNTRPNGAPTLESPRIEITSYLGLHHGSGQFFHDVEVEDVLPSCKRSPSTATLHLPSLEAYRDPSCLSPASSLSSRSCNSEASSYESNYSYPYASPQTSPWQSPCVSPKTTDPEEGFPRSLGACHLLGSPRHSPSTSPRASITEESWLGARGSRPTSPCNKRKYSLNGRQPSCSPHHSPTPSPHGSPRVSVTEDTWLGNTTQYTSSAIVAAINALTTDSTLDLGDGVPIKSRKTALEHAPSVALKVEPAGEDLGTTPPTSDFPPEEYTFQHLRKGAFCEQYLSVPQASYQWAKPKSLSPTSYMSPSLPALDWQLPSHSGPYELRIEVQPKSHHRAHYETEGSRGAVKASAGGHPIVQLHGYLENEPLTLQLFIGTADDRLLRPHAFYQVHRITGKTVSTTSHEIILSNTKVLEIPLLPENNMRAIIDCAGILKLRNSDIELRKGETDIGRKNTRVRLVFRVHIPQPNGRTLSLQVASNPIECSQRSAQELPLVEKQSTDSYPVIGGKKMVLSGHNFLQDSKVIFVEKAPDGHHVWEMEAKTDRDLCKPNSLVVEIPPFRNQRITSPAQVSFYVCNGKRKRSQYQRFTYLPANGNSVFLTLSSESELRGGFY
# For at least one entry, the source does not settle the construct or the ends of the probe. Results from cells or extracts need not show a direct contact. At least one verdict was read from the data and is not stated in words by the source.
# Target: NFATc1 (mouse) (UniProt O88942)
# Test: EMSA with supershift
# Conditions: wild-type CD4+ T cells, CD3/CD28 stimulated overnight, supershift outcome itself not described in text; EMSA: binding buffer not specified, 5% polyacrylamide gel, 3x10^5 cpm probe; extract in 20 mM HEPES pH 7.9, 0.4 M NaCl, 1 mM EDTA, 1 mM EGTA, 1 mM DTT; protein in an extract; label: 32P
sequence,measurement,value
GCCCAAAGAGGAAAATTTGTTTCATACAG (double strand) [NFAT probe (IL-2 promoter-derived)],binding result,binds
